Measured values: PubChem BioAssay AID2551 (National Center for Advancing Translational Sciences (NCATS), 2010)
Where “and” joins values, the source holds several entries; their conditions need not be identical. Equal values may be shown once. About 17,000 (5.5%) of roughly 310,000 compounds were called active. This list was built around the results that the source calls inconclusive (neither active nor inactive); the mix of calls is not that of the screen. Calls come from the whole dose curve; as a rule, active = well fitted inhibition curve with a large enough effect; inconclusive = small, poorly fitted or top-dose-only effect, or effect the other way; inactive = no such curve, though single readings can be large or run the other way. Potencies of inconclusive entries are doubtful fits and often do not repeat.
% is set by controls: 0 for no effect and ±100 for the full control effect; potency is the fitted concentration of half-maximal effect.
Note: nearly all actives have a fitted effect of over 60% in size.

The chains behind the UniProt entries cited, without tags or fusion partners. Where a name states a change or a piece, a line headed by the entry shows the natural chain unless it says otherwise.
UniProt P51450: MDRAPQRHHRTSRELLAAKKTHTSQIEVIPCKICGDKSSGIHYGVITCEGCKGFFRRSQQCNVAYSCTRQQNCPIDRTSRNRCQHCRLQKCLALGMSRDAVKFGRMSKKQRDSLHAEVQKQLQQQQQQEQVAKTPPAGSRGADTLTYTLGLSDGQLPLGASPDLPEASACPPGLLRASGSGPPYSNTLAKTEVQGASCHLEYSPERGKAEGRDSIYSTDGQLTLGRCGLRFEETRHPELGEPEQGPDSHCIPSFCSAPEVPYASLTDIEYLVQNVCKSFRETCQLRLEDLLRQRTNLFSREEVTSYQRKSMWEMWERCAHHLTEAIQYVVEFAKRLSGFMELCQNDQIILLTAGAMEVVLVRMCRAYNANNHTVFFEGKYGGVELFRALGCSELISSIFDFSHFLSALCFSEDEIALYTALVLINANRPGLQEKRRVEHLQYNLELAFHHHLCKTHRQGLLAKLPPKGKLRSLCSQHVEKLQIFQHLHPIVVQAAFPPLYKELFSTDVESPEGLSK

The compounds below were run against Nuclear receptor ROR-gamma (Mus musculus) (UniProt P51450) (assay: qHTS for inhibitors of ROR gamma transcriptional activity). Conditions: Drosophila S2 Gal4-RORgamma UAS-luciferase reporter, 20 h; activity change, negative = inhibition: at 53.6 µM (top of the series).
Procedure, shortened: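 Luminescence from a UAS-regulated Photinus luciferase reporter in stably transfected Drosophila Schneider cells is measured; decreased signal marks ROR gamma inhibition. Fusion expression is induced by 700 uM copper sulfate for 20 hr.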
O=S(=O)(c1ccc(N2CCN(Cc3ccc4c(c3)OCO4)CC2)nc1)N1CCOCC1 was tested, and the “activity change, negative = inhibition” value was inactive: 20.5%.
In the case of CCNC(=S)N1CCN(c2cccc(C(F)(F)F)c2)CC1, the Potency is reported as inconclusive: 10 µM [activator, partial curve].
With O=C(C1CCCCC1)N1CCCC(c2nc(-c3ccc(F)cc3)no2)C1 (centres undefined) the Potency was inconclusive: 17.8 µM [activator, single point].
With Cc1ccc2c(Cl)cc(Cl)c(OCC(=O)Nc3cc(S(=O)(=O)N(C)C)ccc3C)c2n1 the “activity change, negative = inhibition” value was inactive: -138%.
In the case of Cc1ccc(-c2nn(-c3ccccc3)cc2/C=N/NC(=O)c2ccc3c(c2)OCO3)cc1, the Potency is reported as inconclusive: 2.24 µM [inhibitor, full curve].
For CC(C)c1ccc(/C=C2\NC(=S)N(Cc3cccnc3)C2=O)cc1, the Potency was active: 7.94 µM.
In the case of CC(=O)c1cccc(NC(=S)NC(=O)c2ccc(Br)cc2)c1, the Potency is reported as active: 5.62 µM.
Cc1c(CN(C)C(=O)/C=C/c2ccc([N+](=O)[O-])cc2)cnn1C was tested, and the “activity change, negative = inhibition” value was inactive: 31.6%.
With Cc1ccccc1-c1nnc(CS(=O)(=O)c2ccccc2)o1 the Potency was inconclusive: 25.1 µM [inhibitor, single point].
Cc1ccc(S(=O)(=O)N(Cc2ccc(Cl)cc2)c2ccccc2C(=O)NCc2cccnc2)cc1 was tested, and the Potency was inconclusive: 35.5 µM [activator, single point].
In the case of CCC1Oc2ccc(C)cc2N(CC(=O)NCCC2=CCCCC2)C1=O (centres undefined), the Potency is reported as inconclusive: 11.2 µM [activator, single point].
In the case of COc1cccc(C(=O)Nc2ccc3c(c2)C(=O)NC3=O)c1, the Potency is reported as inconclusive: 22.4 µM [activator, single point].
With Nc1c2c(nc3ccc(Br)cc13)N(c1ccccc1)CC2 the “activity change, negative = inhibition” value was inactive: 25.6%.
With CCn1c(CSc2n[nH]c(N)n2)nc2cc(C(=O)O)ccc21 the “activity change, negative = inhibition” value was inactive: 2.68%.
O=Nc1ccc(O)c2ncccc12 was tested, and the Potency was active: 4.47 µM and active: 1.58 µM.
COc1ccc([C@]23Cc4cc(OC)c(OC)cc4C(O2)c2c(cc(C)oc2=O)O3)cc1 was tested, and the activity change, negative = inhibition was inactive: 0.756% [at 10 µM].
N#C/C(=C\c1ccccc1)C(=O)N(c1ccccn1)C1CCCCC1 was tested, and the Potency was active: 2.82 µM.
For Cc1ccsc1C(=O)N/N=C/c1ccc2c(c1)OCO2, the Potency was inconclusive: 14.1 µM [inhibitor, single point].
CC(C)C(C(=O)NC1=NCCS1)c1ccc(Cl)cc1 (centres undefined) was tested, and the Potency was active: 4.47 µM.
In the case of CCn1c(SCC(=O)NC(=O)NCc2ccco2)nnc1-c1cccs1, the Potency is reported as inconclusive: 11.2 µM [activator, partial curve].
For COC(=O)/C(=N\Nc1ccccc1)Sc1nnc(-c2ccc(OC)cc2)n1C, the Potency was inconclusive: 20 µM [inhibitor, single point].
In the case of COc1ccc(C(CNC(=O)COc2cc(C)c(Cl)c(C)c2)N2CCCCC2)cc1 (centres undefined), the Potency is reported as inconclusive: 35.5 µM [inhibitor, single point].
With CC(C)C(C)(C)C(C)(C)C(C)(C)S the “activity change, negative = inhibition” value was inactive: 1.55%.
COc1ccc2nc(N/C(N)=N/C(=S)Nc3ccccc3)nc(C)c2c1 was tested, and the Potency was active: 0.794 µM.
With COc1cccc(Oc2ccc3nnc(C(F)(F)F)n3n2)c1 the “activity change, negative = inhibition” value was inactive: -16.1%.
COc1ccc(NC(=O)NCCC2=CCCCC2)cc1 was tested, and the “activity change, negative = inhibition” value was inactive: -1.35%.
With COC(=O)C1=C(C)N(C)C(=S)NC1c1ccc(Cl)cc1 (centres undefined) the Potency was active: 7.94 µM.
For Oc1cccc(Nc2nc(O)c(/C=C3\C=Nc4ccccc43)s2)c1, the Potency was inconclusive: 2.51 µM [inhibitor, full curve, poor fit].
For O=C(O)CC1NC(=S)N(c2ccccc2)C1=O (centres undefined), the Potency was inconclusive: 15.8 µM [inhibitor, single point].
For CN(Cc1n[nH]c(=S)n1C)S(=O)(=O)c1ccccc1, the Potency was inconclusive: 35.5 µM [inhibitor, single point].
In the case of OCCN1CCN(CCCN2c3ccccc3Sc3ccc(Cl)cc32)CC1, the Potency is reported as inconclusive: 15.8 µM [inhibitor, single point].
In the case of OC[C@H]1OC(O)[C@@H](O)[C@@H](O)[C@@H]1O (some centres undefined), the “activity change, negative = inhibition” value is reported as inactive: 5.36%.
With O=C(Nc1ccccc1)NN(C(=O)CCl)c1ccccc1 the Potency was inconclusive: 22.4 µM [inhibitor, single point].
For C/C(=N\Nc1cccc2cccnc12)c1ccc(N)cc1, the “activity change, negative = inhibition” value was inactive: -42%.
In the case of Cc1ccc(OCC(=O)NNc2c3ccccc3nc3ccccc23)cc1, the Potency is reported as active: 10 µM.
O=c1c2ccccc2nc2n1CCC2O (centres undefined) was tested, and the “activity change, negative = inhibition” value was inactive: 23.9%.
CCOC(=O)/C=C/C(=O)Nc1nccs1 was tested, and the Potency was inconclusive: 1.26 µM [inhibitor, single point].
With O=C(Cn1c(CSc2ccccc2)nc2ccccc21)Nc1ccccc1 the Potency was inconclusive: 14.1 µM [inhibitor, single point].
For O=C(NCc1ccco1)c1cc2ccc(O)cc2oc1=O, the Potency was active: 10 µM.
In the case of OCC(CO)(CO)NC(=S)Nc1cc(Cl)cc(Cl)c1, the Potency is reported as inconclusive: 3.98 µM [activator, full curve].
For NC(=O)NNC1=Nc2cccc3cccc1c23, the “activity change, negative = inhibition” value was inactive: -34.6%.
In the case of COc1ccc(CC(=O)NC(C)C2COc3ccccc3O2)cc1OC (centres undefined), the “activity change, negative = inhibition” value is reported as inactive: 13.7%.
CCc1ccc(NC(=O)c2cnccn2)cc1 was tested, and the Potency was inconclusive: 12.6 µM [inhibitor, partial curve, poor fit].
For O=C(NCCn1c(C(F)(F)F)nc2cc(C(F)(F)F)ccc21)[C@H]1CCCN1c1nc(CN2CCCCC2)cs1, the “activity change, negative = inhibition” value was inactive: -17.1%.
Cc1nc2ccccc2c2oc(C(=O)N3CCc4ccccc4C3)cc12 was tested, and the “activity change, negative = inhibition” value was inactive: -7.92%.
In the case of CC1CCCN(S(=O)(=O)c2cccc([N+](=O)[O-])c2)C1 (centres undefined), the “activity change, negative = inhibition” value is reported as inactive: -0.412%.
Cc1[nH]n(C(N)=S)c(=O)c1N=Nc1ccc2ccccc2c1 was tested, and the Potency was active: 1 µM.
For O=C(CC1SC(=NCCc2ccccc2)N(/N=C/c2cccs2)C1=O)Nc1ccc(Cl)cc1 (centres undefined), the Potency was active: 0.501 µM.
For COc1cccc(-c2cn(-c3cccc(C(F)(F)F)c3)c(=S)[nH]2)c1, the Potency was active: 3.16 µM.
For COc1cccc(NC(=O)C(C)N2C(=O)c3ccccc3C2=O)c1 (centres undefined), the “activity change, negative = inhibition” value was inactive: -2.33%.
With CC(OC(=O)c1nc(-c2ccccc2)n(-c2ccccc2)n1)C(=O)Nc1cc(Cl)cc(Cl)c1 (centres undefined) the Potency was inconclusive: 6.31 µM [inhibitor, single point].
For COc1ccc(NC(=O)C2CCCN(c3cc(C)nc4ncnn34)C2)cc1 (centres undefined), the Potency was inconclusive: 12.6 µM [activator, single point].
O=C1C2C3C=CC(CNS(=O)(=O)c4ccccc4[N+](=O)[O-])(O3)C2C(=O)N1c1ccccc1 (centres undefined) was tested, and the Potency was inconclusive: 15.8 µM [inhibitor, partial curve, poor fit].
With COCCN(CCOC)c1ncnc2c1cnn2-c1ccc(Cl)cc1 the Potency was inconclusive: 8.91 µM [activator, partial curve].
In the case of COc1ccc(CCN(Cc2ccccn2)C(=S)Nc2ccc(C)cc2)cc1OC, the Potency is reported as inconclusive: 25.1 µM [inhibitor, single point].
OC(CNc1ncnc2sccc12)c1ccccc1 (centres undefined) was tested, and the Potency was inconclusive: 35.5 µM [inhibitor, single point].
With COc1ccc(OC)c(/C=C/C(=O)N2CCCc3ccccc32)c1 the “activity change, negative = inhibition” value was inactive: 34.6%.
In the case of COC(=O)C1=C(C)N=C2SCCC(=O)N2C1c1cccs1 (centres undefined), the Potency is reported as inconclusive: 3.55 µM [inhibitor, partial curve].
With O=S(=O)(NCC(c1ccco1)N1CCN(c2ccc(F)cc2)CC1)c1ccc2c(c1)OCCO2 (centres undefined) the Potency was inconclusive: 35.5 µM [activator, single point].
For Oc1ccc(Br)cc1/C=N/Nc1ncc(-c2ccccc2)cn1, the Potency was active: 11.2 µM.
In the case of O=C(Nc1ccccc1N1CCOCC1)c1ccc2ccccc2c1, the “activity change, negative = inhibition” value is reported as inactive: -19.8%.
For COc1ccc(-c2nnc(SCc3cccnc3)o2)cc1, the Potency was inconclusive: 0.0316 µM [activator, full curve, poor fit].
For Cc1ccc2c(c1)c1c(n2C)-c2[nH]ncc2CC1, the “activity change, negative = inhibition” value was inactive: 10.2%.
CCCN(Cc1ccccc1)C(=S)Nc1ccc(SC(F)F)cc1 was tested, and the Potency was active: 8.91 µM.
Cc1cccc(NC(=S)NC2CCSc3ccccc32)c1 (centres undefined) was tested, and the Potency was active: 3.55 µM.
CN(c1ncnc(N)c1[N+](=O)[O-])C1CCCCC1 was tested, and the “activity change, negative = inhibition” value was inactive: -39%.
With CC(C)(C)OC(=O)NNc1c2ccccc2nc2ccccc12 the Potency was inconclusive: 12.6 µM [activator, partial curve].
O=C(CCc1ccccc1)Nc1ccc(F)c([N+](=O)[O-])c1 was tested, and the Potency was inconclusive: 12.6 µM [activator, single point].
CC1CCN(CCCNC(=O)c2ccc3c(=O)n(Cc4ccc(Cl)cc4)c(=S)[nH]c3c2)CC1 was tested, and the Potency was active: 12.6 µM.
For COc1ccc(NC(=O)CN2CCN(S(=O)(=O)c3ccc(F)cc3)CC2)cc1Cl, the Potency was inconclusive: 35.5 µM [activator, single point].
In the case of Cc1nc(Nc2ccc(S(N)(=O)=O)cc2)sc1C(=O)Nc1ccccc1, the Potency is reported as inconclusive: 35.5 µM [activator, single point].
CCO/C=C1/C(=O)N(c2ccc(OC)cc2)C(=O)c2ccccc21 was tested, and the “activity change, negative = inhibition” value was inactive: 16.3%.
In the case of CC(C)(C)c1ccc(OCc2ccc(C(=O)N/N=C3\CC4CC=CC34)cc2)cc1 (centres undefined), the Potency is reported as active: 7.94 µM.
COc1ccc(OCCOC(=O)c2[nH]c(C)c(C(C)=O)c2C)cc1 was tested, and the Potency was inconclusive: 0.891 µM [activator, full curve, poor fit].
With CC(C)c1ccc(/C=C/C(=O)CCC(=O)O)cc1 the Potency was inconclusive: 12.6 µM [inhibitor, partial curve].
O=C(CNC1=NCCC1)c1ccc2c(c1)OCCO2 was tested, and the “activity change, negative = inhibition” value was inactive: 2.79%.
With Cc1nc(-c2ccc(NC(=O)c3ccco3)cc2)cs1 the Potency was active: 3.55 µM.
For O=c1[nH]cccc1-c1nc2ccccc2n1Cc1ccc(Cl)cc1, the Potency was inconclusive: 31.6 µM [activator, single point].
In the case of Cc1cc(N2CCCC2)nc(SCC(=O)c2ccccc2)n1, the Potency is reported as inconclusive: 35.5 µM [activator, single point].
